Earlier results as cited in paper PMC10465233, “Lys-urea-Aad, Lys-urea-Cmc and Lys-urea-Cms as potential pharmacophores for the design of PSMA-targeted radioligands to reduce off-target uptake in kidneys and salivary glands” (Theranostics, 2023).
Like-named read-outs stand apart in the source and are kept apart here.

Experiments:
[1] = parameters: method as in earlier work; conditions: cited from earlier work
LNCaP tumors = test system: LNCaP tumors; parameters: method as in earlier work; conditions: cited from earlier work

## O=C([O-])CN1CCN(CC(=O)[O-])CCN(CC(=O)NCC2CCC(C(=O)NC(Cc3ccc4ccccc4c3)C(=O)NCCCCC(NC(=O)NC(CCC(=O)O)C(=O)O)C(=O)O)CC2)CCN(CC(=O)[O-])CC1.[177Lu+3] (stereo not drawn) [[^177Lu]Lu-PSMA-617]
[1]; target organ Brain
  Organ dose: 1.79E+00 mGy/MBq
[1]; target organ Heart
  Organ dose: 1.90E+00 mGy/MBq
[1]; target organ Kidneys
  Organ dose: 2.23E+02 mGy/MBq
[1]; target organ Large intestine
  Organ dose: 2.42E+00 mGy/MBq
[1]; target organ Liver
  Organ dose: 3.84E+00 mGy/MBq
[1]; target organ Lungs
  Organ dose: 4.46E+00 mGy/MBq
[1]; target organ Pancreas
  Organ dose: 3.60E+00 mGy/MBq
[1]; target organ Remainder of the body
  Organ dose: 6.89E+00 mGy/MBq
[1]; target organ Skeleton
  Organ dose: 1.25E+00 mGy/MBq
[1]; target organ Small intestine
  Organ dose: 2.08E+00 mGy/MBq
[1]; target organ Spleen
  Organ dose: 1.15E+01 mGy/MBq
[1]; target organ Stomach
  Organ dose: 1.51E+00 mGy/MBq
[1]; target organ Testes
  Organ dose: 3.04E+00 mGy/MBq
[1]; target organ Thyroid
  Organ dose: 2.78E+00 mGy/MBq
[1]; target organ Urinary bladder
  Organ dose: 5.76E+02 mGy/MBq
LNCaP tumors; sphere/tumor volume 0.01 mL
  Radiation dose to LNCaP tumor: 3.07E+04 mGy/MBq
LNCaP tumors; sphere/tumor volume 0.1 mL
  Radiation dose to LNCaP tumor: 3.21E+03 mGy/MBq
LNCaP tumors; sphere/tumor volume 0.5 mL
  Radiation dose to LNCaP tumor: 6.51E+02 mGy/MBq
LNCaP tumors; sphere/tumor volume 1 mL
  Radiation dose to LNCaP tumor: 3.28E+02 mGy/MBq
LNCaP tumors; sphere/tumor volume 2 mL
  Radiation dose to LNCaP tumor: 1.65E+02 mGy/MBq
LNCaP tumors; sphere/tumor volume 4 mL
  Radiation dose to LNCaP tumor: 8.28E+01 mGy/MBq
LNCaP tumors; sphere/tumor volume 6 mL
  Radiation dose to LNCaP tumor: 5.53E+01 mGy/MBq
LNCaP tumors; sphere/tumor volume 8 mL
  Radiation dose to LNCaP tumor: 4.15E+01 mGy/MBq
LNCaP tumors; sphere/tumor volume 10 mL
  Radiation dose to LNCaP tumor: 3.33E+01 mGy/MBq
LNCaP tumors; sphere/tumor volume 20 mL
  Radiation dose to LNCaP tumor: 1.67E+01 mGy/MBq
LNCaP tumors; sphere/tumor volume 40 mL
  Radiation dose to LNCaP tumor: 8.38E+00 mGy/MBq
LNCaP tumors; sphere/tumor volume 60 mL
  Radiation dose to LNCaP tumor: 5.60E+00 mGy/MBq
LNCaP tumors; sphere/tumor volume 80 mL
  Radiation dose to LNCaP tumor: 4.21E+00 mGy/MBq
LNCaP tumors; sphere/tumor volume 100 mL
  Radiation dose to LNCaP tumor: 3.37E+00 mGy/MBq
LNCaP tumors; sphere/tumor volume 300 mL
  Radiation dose to LNCaP tumor: 1.13E+00 mGy/MBq
LNCaP tumors; sphere/tumor volume 400 mL
  Radiation dose to LNCaP tumor: 8.54E-01 mGy/MBq
LNCaP tumors; sphere/tumor volume 500 mL
  Radiation dose to LNCaP tumor: 6.85E-01 mGy/MBq
LNCaP tumors; sphere/tumor volume 600 mL
  Radiation dose to LNCaP tumor: 5.72E-01 mGy/MBq
LNCaP tumors; sphere/tumor volume 1000 mL
  Radiation dose to LNCaP tumor: 3.45E-01 mGy/MBq
LNCaP tumors; sphere/tumor volume 2000 mL
  Radiation dose to LNCaP tumor: 1.75E-01 mGy/MBq
LNCaP tumors; sphere/tumor volume 3000 mL
  Radiation dose to LNCaP tumor: 1.17E-01 mGy/MBq
LNCaP tumors; sphere/tumor volume 4000 mL
  Radiation dose to LNCaP tumor: 8.86E-02 mGy/MBq
LNCaP tumors; sphere/tumor volume 5000 mL
  Radiation dose to LNCaP tumor: 7.12E-02 mGy/MBq
LNCaP tumors; sphere/tumor volume 6000 mL
  Radiation dose to LNCaP tumor: 5.96E-02 mGy/MBq
